No constants are given. Whether binding was seen depends on the method and setting. In cells and extracts the contact can be indirect. Some results given as binding are weak or reduced against the parent protein; the word gives no strength.
What was measured:
Myc-tagged DLL3 (human) = Myc-tagged DLL3 (human) (UniProt Q9NYJ7); assay: S-bead pull-down of cSFB-LRP1β with Myc-DLL3 from co-transfected HEK293T cells
[1] = target: LRP1β, transmembrane and intracellular subunit of 85 kDa of LRP1, endogenous in HEK293T cells (human) (UniProt Q07954); assay: co-immunoprecipitation of endogenous proteins from HEK293T lysate, western blot
[2] = target: LRP1α, extracellular ligand-binding subunit of 515 kDa of LRP1, endogenous in HEK293T cells (human) (UniProt Q07954); assay: GST pull-down of HEK293T lysate with GST-RAPm6 on glutathione sepharose, western blot for LRP1α
[3] = target: DLL3, endogenous in HEK293T cells (human) (UniProt Q9NYJ7); assay: figure legend heading (co-IP, pull-down)
[4] = target: DLL3, endogenous in HEK293T cells (human) (UniProt Q9NYJ7); assay: co-immunoprecipitation of endogenous proteins from HEK293T lysate, western blot
[5] = target: DLL3, endogenous in HEK293T cells (human) (UniProt Q9NYJ7); assay: co-immunoprecipitation of endogenous proteins from HEK293T lysate
Myc-tagged LRP1β (human) = Myc-tagged LRP1β (human) (UniProt Q07954); assay: S-bead pull-down of cSFB-DLL3 with Myc-LRP1β from co-transfected HEK293T cells

Chains of the proteins cited; added tags and fusions are not shown. Lines headed by an entry give the natural chain unless they say otherwise; changes in a name come on top. A line that says so, or that is headed by a name, gives the form on record, which may keep a tag or linker. Residues count along the entry.
UniProt Q07954: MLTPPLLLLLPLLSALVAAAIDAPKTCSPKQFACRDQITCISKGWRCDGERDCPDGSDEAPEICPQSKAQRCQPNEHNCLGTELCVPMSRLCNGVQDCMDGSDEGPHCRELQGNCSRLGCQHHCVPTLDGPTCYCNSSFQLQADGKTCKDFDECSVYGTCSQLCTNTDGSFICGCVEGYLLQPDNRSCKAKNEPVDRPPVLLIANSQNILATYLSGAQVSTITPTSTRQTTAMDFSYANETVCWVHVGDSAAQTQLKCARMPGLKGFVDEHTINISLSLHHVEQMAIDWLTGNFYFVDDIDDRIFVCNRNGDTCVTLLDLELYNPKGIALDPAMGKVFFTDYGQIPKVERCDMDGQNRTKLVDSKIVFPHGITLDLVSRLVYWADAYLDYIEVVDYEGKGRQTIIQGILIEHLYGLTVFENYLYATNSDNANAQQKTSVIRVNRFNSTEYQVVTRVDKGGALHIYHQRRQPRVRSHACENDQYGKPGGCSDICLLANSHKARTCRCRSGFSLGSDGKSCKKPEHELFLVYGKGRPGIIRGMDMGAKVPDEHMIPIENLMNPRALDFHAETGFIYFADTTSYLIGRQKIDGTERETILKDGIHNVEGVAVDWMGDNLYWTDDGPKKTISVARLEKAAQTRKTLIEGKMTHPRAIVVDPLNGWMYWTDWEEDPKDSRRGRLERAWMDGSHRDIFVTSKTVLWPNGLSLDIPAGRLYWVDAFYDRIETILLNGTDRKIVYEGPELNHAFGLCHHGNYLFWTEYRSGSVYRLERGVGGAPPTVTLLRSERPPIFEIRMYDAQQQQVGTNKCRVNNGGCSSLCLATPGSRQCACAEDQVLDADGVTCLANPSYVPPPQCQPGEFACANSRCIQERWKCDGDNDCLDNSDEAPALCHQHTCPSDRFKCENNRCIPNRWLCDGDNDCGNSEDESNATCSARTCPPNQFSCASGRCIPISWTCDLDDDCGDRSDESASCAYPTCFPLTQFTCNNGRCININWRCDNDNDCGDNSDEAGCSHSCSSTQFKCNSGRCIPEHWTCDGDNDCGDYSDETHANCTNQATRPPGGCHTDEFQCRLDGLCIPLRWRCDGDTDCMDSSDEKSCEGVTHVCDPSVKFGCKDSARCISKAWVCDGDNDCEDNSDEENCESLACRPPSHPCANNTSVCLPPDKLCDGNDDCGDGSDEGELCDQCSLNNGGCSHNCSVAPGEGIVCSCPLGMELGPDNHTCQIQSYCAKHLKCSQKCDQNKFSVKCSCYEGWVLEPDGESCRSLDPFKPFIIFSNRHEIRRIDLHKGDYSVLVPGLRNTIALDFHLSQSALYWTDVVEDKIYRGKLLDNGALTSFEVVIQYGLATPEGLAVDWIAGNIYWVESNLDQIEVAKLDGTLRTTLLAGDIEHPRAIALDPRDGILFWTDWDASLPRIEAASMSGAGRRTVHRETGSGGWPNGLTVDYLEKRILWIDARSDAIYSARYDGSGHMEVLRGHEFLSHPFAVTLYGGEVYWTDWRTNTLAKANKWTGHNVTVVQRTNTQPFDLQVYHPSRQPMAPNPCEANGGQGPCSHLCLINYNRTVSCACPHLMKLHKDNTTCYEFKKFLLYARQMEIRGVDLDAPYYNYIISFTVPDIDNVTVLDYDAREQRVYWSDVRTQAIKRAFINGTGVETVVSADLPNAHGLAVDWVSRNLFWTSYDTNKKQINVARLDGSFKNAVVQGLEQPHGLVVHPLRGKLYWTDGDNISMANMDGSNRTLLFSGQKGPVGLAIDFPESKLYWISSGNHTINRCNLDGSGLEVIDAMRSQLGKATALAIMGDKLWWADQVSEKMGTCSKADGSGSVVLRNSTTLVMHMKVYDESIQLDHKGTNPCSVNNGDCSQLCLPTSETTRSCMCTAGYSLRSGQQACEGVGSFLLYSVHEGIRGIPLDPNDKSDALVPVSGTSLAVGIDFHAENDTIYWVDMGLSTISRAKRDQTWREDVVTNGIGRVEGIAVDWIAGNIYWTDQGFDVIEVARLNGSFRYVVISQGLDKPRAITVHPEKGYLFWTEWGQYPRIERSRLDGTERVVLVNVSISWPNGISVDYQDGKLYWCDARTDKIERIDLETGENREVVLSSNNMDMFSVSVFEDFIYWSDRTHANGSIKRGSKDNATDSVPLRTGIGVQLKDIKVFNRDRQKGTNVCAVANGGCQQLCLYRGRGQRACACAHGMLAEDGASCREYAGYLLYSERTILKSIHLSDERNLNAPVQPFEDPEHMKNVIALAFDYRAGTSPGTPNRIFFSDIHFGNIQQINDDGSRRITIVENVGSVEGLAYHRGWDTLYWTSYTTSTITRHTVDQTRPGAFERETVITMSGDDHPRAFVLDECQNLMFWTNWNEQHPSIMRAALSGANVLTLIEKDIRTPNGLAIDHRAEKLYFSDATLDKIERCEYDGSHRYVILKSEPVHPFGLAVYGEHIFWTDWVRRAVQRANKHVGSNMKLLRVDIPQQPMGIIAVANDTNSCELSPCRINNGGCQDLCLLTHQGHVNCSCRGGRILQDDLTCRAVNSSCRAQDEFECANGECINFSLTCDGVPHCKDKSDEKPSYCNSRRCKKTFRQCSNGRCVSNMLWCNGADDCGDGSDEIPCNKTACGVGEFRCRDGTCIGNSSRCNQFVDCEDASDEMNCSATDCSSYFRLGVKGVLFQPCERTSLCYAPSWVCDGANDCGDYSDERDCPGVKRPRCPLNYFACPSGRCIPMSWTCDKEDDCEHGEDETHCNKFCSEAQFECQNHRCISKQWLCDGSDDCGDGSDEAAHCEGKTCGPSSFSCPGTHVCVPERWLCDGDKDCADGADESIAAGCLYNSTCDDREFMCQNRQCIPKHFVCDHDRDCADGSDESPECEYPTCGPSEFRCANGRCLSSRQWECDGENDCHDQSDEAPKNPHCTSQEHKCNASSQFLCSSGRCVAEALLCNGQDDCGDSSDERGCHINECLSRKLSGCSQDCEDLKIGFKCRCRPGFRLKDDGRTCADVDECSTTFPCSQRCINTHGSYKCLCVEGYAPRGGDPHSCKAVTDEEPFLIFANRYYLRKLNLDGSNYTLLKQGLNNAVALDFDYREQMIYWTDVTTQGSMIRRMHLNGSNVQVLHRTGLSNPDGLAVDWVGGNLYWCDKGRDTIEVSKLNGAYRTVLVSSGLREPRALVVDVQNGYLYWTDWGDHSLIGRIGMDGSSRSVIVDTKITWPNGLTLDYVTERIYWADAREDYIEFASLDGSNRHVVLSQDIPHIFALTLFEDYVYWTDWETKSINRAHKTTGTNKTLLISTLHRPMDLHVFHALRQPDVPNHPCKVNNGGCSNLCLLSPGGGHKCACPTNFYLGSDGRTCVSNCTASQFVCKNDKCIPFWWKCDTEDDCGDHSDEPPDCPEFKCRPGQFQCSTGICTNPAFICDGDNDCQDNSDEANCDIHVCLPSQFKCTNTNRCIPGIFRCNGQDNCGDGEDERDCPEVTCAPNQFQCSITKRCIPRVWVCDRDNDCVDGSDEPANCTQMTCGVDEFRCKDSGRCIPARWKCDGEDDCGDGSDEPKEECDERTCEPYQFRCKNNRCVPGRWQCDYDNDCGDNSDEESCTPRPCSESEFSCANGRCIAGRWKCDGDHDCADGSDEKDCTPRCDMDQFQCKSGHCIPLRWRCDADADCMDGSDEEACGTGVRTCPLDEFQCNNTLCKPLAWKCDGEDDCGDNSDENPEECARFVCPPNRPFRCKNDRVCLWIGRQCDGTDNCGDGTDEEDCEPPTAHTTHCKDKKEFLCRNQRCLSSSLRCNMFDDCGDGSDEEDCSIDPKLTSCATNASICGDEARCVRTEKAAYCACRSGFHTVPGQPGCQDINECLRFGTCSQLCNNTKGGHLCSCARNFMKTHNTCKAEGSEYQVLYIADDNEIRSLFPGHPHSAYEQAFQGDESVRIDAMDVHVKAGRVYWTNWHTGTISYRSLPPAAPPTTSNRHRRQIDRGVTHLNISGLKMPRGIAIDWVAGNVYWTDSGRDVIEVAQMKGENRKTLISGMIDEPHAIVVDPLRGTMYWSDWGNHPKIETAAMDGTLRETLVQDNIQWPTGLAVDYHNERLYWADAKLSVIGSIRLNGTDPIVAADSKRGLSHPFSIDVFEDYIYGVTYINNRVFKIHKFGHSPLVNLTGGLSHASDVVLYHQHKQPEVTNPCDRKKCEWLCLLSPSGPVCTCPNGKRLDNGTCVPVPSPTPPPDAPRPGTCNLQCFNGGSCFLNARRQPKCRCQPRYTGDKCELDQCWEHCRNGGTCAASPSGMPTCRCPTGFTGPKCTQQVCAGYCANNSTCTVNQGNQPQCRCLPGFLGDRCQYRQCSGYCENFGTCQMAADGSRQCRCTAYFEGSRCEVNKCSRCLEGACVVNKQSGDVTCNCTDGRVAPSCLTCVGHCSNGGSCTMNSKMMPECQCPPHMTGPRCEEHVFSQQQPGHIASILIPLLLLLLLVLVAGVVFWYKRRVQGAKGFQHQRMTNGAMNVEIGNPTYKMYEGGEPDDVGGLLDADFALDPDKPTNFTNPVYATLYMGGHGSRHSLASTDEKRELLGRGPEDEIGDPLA
LRP1α, extracellular ligand-binding subunit of 515 kDa of LRP1, endogenous in HEK293T cells: residues 20-3943 of Q07954
Myc-tagged LRP1β: residues 3944-4544 of Q07954
UniProt P30533: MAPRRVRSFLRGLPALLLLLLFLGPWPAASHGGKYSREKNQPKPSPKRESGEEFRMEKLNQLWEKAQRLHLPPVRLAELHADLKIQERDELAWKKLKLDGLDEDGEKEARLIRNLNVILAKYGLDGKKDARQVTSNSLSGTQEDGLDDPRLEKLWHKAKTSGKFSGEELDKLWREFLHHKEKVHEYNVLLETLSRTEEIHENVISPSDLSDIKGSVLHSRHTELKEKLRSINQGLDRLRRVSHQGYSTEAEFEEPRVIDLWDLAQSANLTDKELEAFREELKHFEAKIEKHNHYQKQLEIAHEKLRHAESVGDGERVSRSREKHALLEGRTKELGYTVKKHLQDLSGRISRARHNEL

How did the binding (Myc-tagged DLL3 (human)) turn out when “cSFB-tagged wild-type LRP1β (from UniProt Q07954 3944-4544) (receptor)” was run?
The binding was “binds”.

Which binding [1] does the source give for “DLL3, endogenous in HEK293T cells (from UniProt Q9NYJ7 27-618) (ligand)” here?
The binding was “binds”.

With “GST-RAPm6 (LRPAP1 mutant RAPm6 fused to GST, purified from E. coli) (from UniProt P30533 35-357)” as the molecule, how does the binding [2] read?
Its binding is “binds”.

How did the binding [3] turn out when “LRP1 (low density lipoprotein receptor-related protein 1), endogenous in HEK293T cells (from UniProt Q07954 20-4544)” was run?
Its binding is “binds”.

What about the binding [4] of the same molecule?
Its binding is “binds”.

For “LRP1β, transmembrane and intracellular subunit of 85 kDa of LRP1, endogenous in HEK293T cells (from UniProt Q07954 3944-4544) (receptor)”, which binding [5] is on record?
The binding was “binds”.

B1: cSFB-tagged wild-type DLL3 (ligand, human, UniProt Q9NYJ7 27-618, looked up)
chain: AGVFELQIHSFGPGPGPGAPRSPCSARLPCRLFFRVCLKPGLSEEAAESPCALGAALSARGPVYTEQPGAPAPDLPLPDGLLQVPFRDAWPGTFSFIIETWREELGDQIGGPAWSLLARVAGRRRLAAGGPWARDIQRAGAWELRFSYRARCEPPAVGTACTRLCRPRSAPSRCGPGLRPCAPLEDECEAPLVCRAGCSPEHGFCEQPGECRCLEGWTGPLCTVPVSTSSCLSPRGPSSATTGCLVPGPGPCDGNPCANGGSCSETPRSFECTCPRGFYGLRCEVSGVTCADGPCFNGGLCVGGADPDSAYICHCPPGFQGSNCEKRVDRCSLQPCRNGGLCLDLGHALRCRCRAGFAGPRCEHDLDDCAGRACANGGTCVEGGGAHRCSCALGFGGRDCRERADPCAARPCAHGGRCYAHFSGLVCACAPGYMGARCEFPVHPDGASALPAAPPGLRPGDPQRYLLPPALGLLVAAGVAGAALLLVHVRRRGHSQDAGSRLLAGTPEPSVHALPDALNNLRTQEGSGDGPSSSVDWNRPEDVDPQGIYVISAPSIYAREVATPLFPPLHTGRAGQRQHLLFPYPSSILSVK
notes: Expressed in HEK293T cells, pulled down on S beads; also called cSFB-DLL3; C-terminal SFB-fused DLL3; not shown: C-terminal SFB triple tag (S protein tag-2xFLAG tag-SBP tag)
With B1 as the molecule, how does the binding (Myc-tagged LRP1β (human)) read?
Its binding is “binds”.
